PubChem BioAssay AID1053208 – Peter MacCallum Cancer Centre, 2014
Aim: 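Find knock-downs that sensitise mouse osteosarcoma cells to doxorubicin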 (primary screen). System: mouse osteosarcoma cells, early-passage culture from an engineered mouse model of fibroblastic bone tumour. Reagents: siRNA pool against mouse genes, 40 nM. Duration: about 120 h (48 h before drug, then 72 h with drug). Challenge: doxorubicin 100 nM for 72 h, roughly 30-40% inhibitory dose. Read-out: 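Viability read as ATP luminescence after 72 h of 100 nM doxorubicin or none, duplicate wells averaged, scaled to non-targeting siRNA, then expressed as robust z-scores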. Direction: viability z-score with doxorubicin and doxorubicin viability vs non-targeting: higher = more viable cells under doxorubicin; viability z-score without drug: higher = more viable cells with knock-down alone; z-score of drug to no-drug ratio: higher = less drug sensitisation by knock-down. Active means: 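Called active if knock-down leaves viability unchanged without drug (z within -2 to 2) but lowers it with doxorubicin (z at or under -2)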.
This is a random part of about 17,000 deposited reagents. 788 of them (4.7%) count as active. 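Calls rest on z-score classes alone; an extra cut-off of viability at most 70% of control was not applied to them.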 Reagent sequences are not shown.

| Target gene | combined z-score class | viability z-score with doxorubicin | viability z-score without drug | z-score of drug to no-drug ratio | doxorubicin viability vs non-targeting | Call |
| --- | --- | --- | --- | --- | --- | --- |
| Sprr1b | no change with or without drug | 0.56 | 0.51 | 0.34 | 0.99 | inactive |
| Gba1 | no change with or without drug | -0.34 | -0.84 | 0.34 | 0.91 | inactive |
| Tff3 | no change with or without drug | 1.12 | 0.67 | 0.79 | 1.04 | inactive |
| Or4a75 | no change with or without drug | -1.12 | -0.51 | -0.79 | 0.84 | inactive |
| Rabgef1 | no change with or without drug | -0.11 | -0.17 | 0.11 | 0.93 | inactive |
| Adipor2 | no change with or without drug | -1.24 | -0.17 | -1.12 | 0.83 | inactive |
| Dhx36 | no change with or without drug | 0.9 | 1.85 | -0.22 | 1.02 | inactive |
| Sowahd | low cell count without drug only | -0.34 | -6.58 | 7.19 | 0.91 | inactive |
| Znrd2 | no change with or without drug | -1.01 | -0.84 | -0.45 | 0.85 | inactive |
| Or7a35 | no change with or without drug | -0.45 | -0.17 | -0.22 | 0.9 | inactive |
| Fam98a | high cell count without drug only | 0.45 | 2.19 | -0.79 | 0.98 | inactive |
| Foxo4 | no change with or without drug | 0 | 1.01 | -0.56 | 0.94 | inactive |
| Ccdc25 | no change with or without drug | -0.11 | -0.67 | 0.45 | 0.93 | inactive |
| Tbx19 | no change with or without drug | -0.45 | 1.85 | -1.46 | 0.9 | inactive |
| Pttg1ip | no change with or without drug | -0.67 | -0.17 | -0.45 | 0.88 | inactive |
| Agap3 | no change with or without drug | -1.57 | -0.84 | -1.01 | 0.8 | inactive |
| Wsb1 | no change with or without drug | 0.34 | -0.17 | 0.56 | 0.97 | inactive |
| Tpo | no change with or without drug | 0.11 | 0.17 | 0.11 | 0.95 | inactive |
| Cdrt4 | no change with or without drug | 1.12 | -0.17 | 1.46 | 1.04 | inactive |
| Rab2b | no change with or without drug | -1.12 | 0.51 | -1.35 | 0.84 | inactive |
| As3mt | high cell count without drug only | 0.22 | 2.19 | -1.01 | 0.96 | inactive |
| Mtmr2 | no change with or without drug | 1.12 | -0.17 | 1.46 | 1.04 | inactive |
| Galnt3 | no change with or without drug | -0.9 | -0.51 | -0.56 | 0.86 | inactive |
| Tmem222 | no change with or without drug | -1.35 | 1.18 | -2.02 | 0.82 | inactive |
| Med14 | low cell count with and without drug | -5.06 | -2.19 | -4.27 | 0.49 | inactive |
| Tns2 | no change with or without drug | -0.22 | 0.51 | -0.45 | 0.92 | inactive |
| Lrrc75a | no change with or without drug | 1.12 | -0.67 | 1.8 | 1.04 | inactive |
| Ttyh2 | no change with or without drug | -0.22 | -0.34 | 0.11 | 0.92 | inactive |
| Zfr | high cell count with and without drug | 2.7 | 2.53 | 1.01 | 1.18 | inactive |
| Dok1 | high cell count with doxorubicin only | 2.47 | 1.01 | 1.91 | 1.16 | inactive |
| Pdzd7 | no change with or without drug | -0.45 | -1.35 | 0.56 | 0.9 | inactive |
| Tnfaip3 | no change with or without drug | 0.9 | 0.51 | 0.67 | 1.02 | inactive |
| Or12j5 | no change with or without drug | 1.12 | -0.17 | 1.46 | 1.04 | inactive |
| Fastkd3 | no change with or without drug | -1.35 | -0.17 | -1.24 | 0.82 | inactive |
| Slc75a1 | low cell count without drug only | 0.45 | -2.19 | 2.47 | 0.98 | inactive |
| Prl8a9 | no change with or without drug | -0.9 | 0.17 | -0.9 | 0.86 | inactive |
| Spred3 | no change with or without drug | -0.22 | 1.52 | -1.12 | 0.92 | inactive |
| Med16 | no change with or without drug | 0.11 | -0.51 | 0.56 | 0.95 | inactive |
| Usp3 | no change with or without drug | -0.34 | -0.67 | 0.22 | 0.91 | inactive |
| Oacyl | no change with or without drug | 1.69 | 0.84 | 1.24 | 1.09 | inactive |
| Mettl3 | no change with or without drug | -1.8 | 0.34 | -2.02 | 0.78 | inactive |
| Pdha1 | no change with or without drug | -0.56 | -0.51 | -0.11 | 0.89 | inactive |
| Ankmy2 | no change with or without drug | -0.34 | 0.17 | -0.34 | 0.91 | inactive |
| Hrh3 | no change with or without drug | -0.11 | -1.35 | 1.01 | 0.93 | inactive |
| Chtf8 | no change with or without drug | -0.45 | 0.34 | -0.56 | 0.9 | inactive |
| Strip2 | no change with or without drug | -1.01 | 0.67 | -1.35 | 0.85 | inactive |
| Rbp3 | no change with or without drug | 0 | -0.17 | 0.22 | 0.94 | inactive |
| Abi2 | no change with or without drug | 0.79 | 1.18 | 0.11 | 1.01 | inactive |
| Tcf12 | no change with or without drug | 0 | 0.84 | -0.45 | 0.94 | inactive |
| Guca1b | no change with or without drug | 0.22 | -0.17 | 0.45 | 0.96 | inactive |

Reformatted: 7 of the entries above
{"Target gene":"Dhx36","combined z-score class":"no change with or without drug","viability z-score with doxorubicin":0.9,"viability z-score without drug":1.85,"z-score of drug to no-drug ratio":-0.22,"doxorubicin viability vs non-targeting":1.02,"Call":"inactive"}
{"Target gene":"Sowahd","combined z-score class":"low cell count without drug only","viability z-score with doxorubicin":-0.34,"viability z-score without drug":-6.58,"z-score of drug to no-drug ratio":7.19,"doxorubicin viability vs non-targeting":0.91,"Call":"inactive"}
{"Target gene":"Znrd2","combined z-score class":"no change with or without drug","viability z-score with doxorubicin":-1.01,"viability z-score without drug":-0.84,"z-score of drug to no-drug ratio":-0.45,"doxorubicin viability vs non-targeting":0.85,"Call":"inactive"}
{"Target gene":"Or7a35","combined z-score class":"no change with or without drug","viability z-score with doxorubicin":-0.45,"viability z-score without drug":-0.17,"z-score of drug to no-drug ratio":-0.22,"doxorubicin viability vs non-targeting":0.9,"Call":"inactive"}
{"Target gene":"Fam98a","combined z-score class":"high cell count without drug only","viability z-score with doxorubicin":0.45,"viability z-score without drug":2.19,"z-score of drug to no-drug ratio":-0.79,"doxorubicin viability vs non-targeting":0.98,"Call":"inactive"}
{"Target gene":"Foxo4","combined z-score class":"no change with or without drug","viability z-score with doxorubicin":0,"viability z-score without drug":1.01,"z-score of drug to no-drug ratio":-0.56,"doxorubicin viability vs non-targeting":0.94,"Call":"inactive"}
{"Target gene":"Ccdc25","combined z-score class":"no change with or without drug","viability z-score with doxorubicin":-0.11,"viability z-score without drug":-0.67,"z-score of drug to no-drug ratio":0.45,"doxorubicin viability vs non-targeting":0.93,"Call":"inactive"}
